Results taken from patent EP4670730A1, “FRUCTUS TRICHOSANTHIS POLYPEPTIDE HAVING EFFICACY OF TONIFYING KIDNEY YANG, PREPARATION METHOD AND USE THEREOF” (South China Agricultural University, priority 2024, dated 2025).
Not every detail of the peptide structures is certain; ends, links or a residue may be inferred. Peptide text beside a SMILES is read from it.

Tests used:
Format in all cases: cell-based, mouse
TM3 cell = assay: Secretion of TM3 cell-correlated male hormones (androstenedione, testosterone, dihydrotestosterone, free testosterone), Elisa kit; details: TSH1-3 50, 100, 200 µg/mL; VTPVGSPR 200 µg/mL; 48 h; FIG. 8
[1] = system: StAR, TSPO, CYP11A1, and 3β-HSD; assay: Relative mRNA expression of genes correlated to synthesis of testosterone (RT-PCR, 2^-ΔΔCt); details: TSH1-3 50, 100, 200 µg/mL; VTPVGSPR 200 µg/mL; 37°C, 48 h; β-actin control gene; ratio to Control; FIG. 9
[2] = system: StAR, TSPO, CYP11A1, and 3β-HSD; assay: Expression of proteins correlated to synthesis of testosterone (western blot); details: TSH1-3 50, 100, 200 µg/mL; VTPVGSPR 200 µg/mL; 37°C, 48 h; FIG. 10
mitochondrial mtDNA = assay: mtDNA copy number in TM3 cells (TaqMan probes ND1 and ND6); details: probes ND1 and ND6, 18S as normalized reference; FIG. 11

SMILES: CC(C)[C@H](N)C(=O)N[C@H](C(=O)N1CCC[C@H]1C(=O)N[C@H](C(=O)NCC(=O)N[C@@H](CO)C(=O)N1CCC[C@H]1C(=O)N[C@@H](CCCNC(=N)N)C(=O)O)C(C)C)[C@@H](C)O [VTPVGSPR] (H-VTPVGSPR-OH)
- secretion of androstenedione (TM3 cell): accelerate the secretion
- secretion of dihydrotestosterone (TM3 cell): accelerate the secretion
- secretion of free testosterone (TM3 cell): accelerate the secretion
- secretion of testosterone (TM3 cell): accelerate the secretion
- expression quantity of related genes (StAR, TSPO, CYP11A1, 3β-HSD), transcriptional level [1]: significantly improved as compared to these in the Control
- expression level of each protein (StAR, TSPO, CYP11A1, 3β-HSD), protein level [2]: significantly improved as compared to these in the Control
- expression of the mitochondrial mtDNA (mtDNA copy number) (mitochondrial mtDNA): accelerate the expression of the mitochondrial mtDNA
